Test results taken from the supplement of paper PMC10849652.
Some of the results follow.

The chains behind the UniProt entries cited, without tags or fusion partners. Where a name states a change or a piece, a line headed by the entry shows the natural chain unless it says otherwise.
UniProt Q86W50: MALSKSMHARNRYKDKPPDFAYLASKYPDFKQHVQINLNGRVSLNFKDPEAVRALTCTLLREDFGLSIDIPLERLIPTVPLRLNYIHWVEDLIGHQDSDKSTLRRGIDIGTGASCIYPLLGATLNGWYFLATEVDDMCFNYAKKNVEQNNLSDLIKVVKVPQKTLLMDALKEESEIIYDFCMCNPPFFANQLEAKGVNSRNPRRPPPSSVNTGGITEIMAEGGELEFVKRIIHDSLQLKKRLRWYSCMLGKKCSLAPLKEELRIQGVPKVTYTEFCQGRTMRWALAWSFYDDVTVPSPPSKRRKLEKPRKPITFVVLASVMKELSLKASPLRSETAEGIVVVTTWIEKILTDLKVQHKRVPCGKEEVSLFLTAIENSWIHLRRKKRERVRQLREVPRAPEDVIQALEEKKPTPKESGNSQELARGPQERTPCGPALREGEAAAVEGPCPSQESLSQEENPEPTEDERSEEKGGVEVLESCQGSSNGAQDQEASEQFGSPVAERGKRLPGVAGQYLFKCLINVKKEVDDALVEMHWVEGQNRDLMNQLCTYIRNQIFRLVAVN
UniProt Q9NPJ6: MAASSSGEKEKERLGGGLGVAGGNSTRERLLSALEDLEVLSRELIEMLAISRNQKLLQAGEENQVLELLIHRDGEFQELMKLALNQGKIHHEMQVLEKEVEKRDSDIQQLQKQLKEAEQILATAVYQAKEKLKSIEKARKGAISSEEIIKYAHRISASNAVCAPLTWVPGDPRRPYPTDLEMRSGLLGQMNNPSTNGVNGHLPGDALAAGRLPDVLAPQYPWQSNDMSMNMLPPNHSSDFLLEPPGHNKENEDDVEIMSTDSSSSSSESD
UniProt P40925: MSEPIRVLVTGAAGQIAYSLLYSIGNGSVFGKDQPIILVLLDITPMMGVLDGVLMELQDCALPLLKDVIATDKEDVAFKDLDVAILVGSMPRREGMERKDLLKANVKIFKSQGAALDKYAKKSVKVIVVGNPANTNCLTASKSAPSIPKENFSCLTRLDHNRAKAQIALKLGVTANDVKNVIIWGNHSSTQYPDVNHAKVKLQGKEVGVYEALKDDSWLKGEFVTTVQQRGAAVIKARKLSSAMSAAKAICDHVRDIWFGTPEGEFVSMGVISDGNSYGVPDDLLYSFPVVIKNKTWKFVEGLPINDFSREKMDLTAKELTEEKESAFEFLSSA
UniProt P33991: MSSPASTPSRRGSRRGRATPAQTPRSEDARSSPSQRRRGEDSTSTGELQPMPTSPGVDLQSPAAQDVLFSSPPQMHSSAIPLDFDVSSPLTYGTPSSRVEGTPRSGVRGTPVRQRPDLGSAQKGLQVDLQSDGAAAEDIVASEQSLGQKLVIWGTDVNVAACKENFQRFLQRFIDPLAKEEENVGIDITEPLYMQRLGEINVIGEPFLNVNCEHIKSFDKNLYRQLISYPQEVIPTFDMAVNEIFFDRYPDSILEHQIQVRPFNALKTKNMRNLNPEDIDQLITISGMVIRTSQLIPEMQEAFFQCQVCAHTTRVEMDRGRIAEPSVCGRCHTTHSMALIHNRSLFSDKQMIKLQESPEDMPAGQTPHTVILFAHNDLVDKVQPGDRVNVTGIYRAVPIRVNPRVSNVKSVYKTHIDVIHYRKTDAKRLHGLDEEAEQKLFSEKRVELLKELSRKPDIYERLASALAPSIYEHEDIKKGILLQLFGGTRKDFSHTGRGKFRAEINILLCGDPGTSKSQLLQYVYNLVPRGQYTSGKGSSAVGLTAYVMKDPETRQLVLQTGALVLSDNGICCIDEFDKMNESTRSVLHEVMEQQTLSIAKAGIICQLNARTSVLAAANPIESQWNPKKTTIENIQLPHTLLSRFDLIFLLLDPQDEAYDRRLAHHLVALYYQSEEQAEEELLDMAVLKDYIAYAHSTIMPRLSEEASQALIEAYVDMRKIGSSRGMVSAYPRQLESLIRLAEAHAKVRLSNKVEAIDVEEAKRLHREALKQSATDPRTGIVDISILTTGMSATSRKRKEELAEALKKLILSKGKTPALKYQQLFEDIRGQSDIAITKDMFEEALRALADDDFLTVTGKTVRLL
UniProt Q8NI22: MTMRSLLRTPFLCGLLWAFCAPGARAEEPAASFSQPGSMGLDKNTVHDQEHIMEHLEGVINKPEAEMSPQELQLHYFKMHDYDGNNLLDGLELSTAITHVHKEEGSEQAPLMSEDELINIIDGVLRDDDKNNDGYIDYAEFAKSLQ
UniProt Q14696: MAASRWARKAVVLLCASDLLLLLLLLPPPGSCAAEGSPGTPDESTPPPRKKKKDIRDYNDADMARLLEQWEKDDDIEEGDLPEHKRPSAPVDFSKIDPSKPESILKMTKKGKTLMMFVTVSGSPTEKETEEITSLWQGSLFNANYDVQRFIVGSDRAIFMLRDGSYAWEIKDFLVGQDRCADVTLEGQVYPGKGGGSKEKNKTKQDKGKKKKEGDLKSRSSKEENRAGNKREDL
UniProt Q08431: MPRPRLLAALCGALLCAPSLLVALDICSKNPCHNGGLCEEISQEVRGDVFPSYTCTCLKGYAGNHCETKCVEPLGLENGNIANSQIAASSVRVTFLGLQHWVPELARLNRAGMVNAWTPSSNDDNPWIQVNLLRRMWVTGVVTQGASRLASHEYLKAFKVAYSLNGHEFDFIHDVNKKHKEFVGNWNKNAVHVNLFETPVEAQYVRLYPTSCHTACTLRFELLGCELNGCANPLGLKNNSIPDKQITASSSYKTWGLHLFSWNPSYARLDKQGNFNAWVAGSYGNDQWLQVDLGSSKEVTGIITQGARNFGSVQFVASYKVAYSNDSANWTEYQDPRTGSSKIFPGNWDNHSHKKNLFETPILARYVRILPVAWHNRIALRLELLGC
UniProt P48163: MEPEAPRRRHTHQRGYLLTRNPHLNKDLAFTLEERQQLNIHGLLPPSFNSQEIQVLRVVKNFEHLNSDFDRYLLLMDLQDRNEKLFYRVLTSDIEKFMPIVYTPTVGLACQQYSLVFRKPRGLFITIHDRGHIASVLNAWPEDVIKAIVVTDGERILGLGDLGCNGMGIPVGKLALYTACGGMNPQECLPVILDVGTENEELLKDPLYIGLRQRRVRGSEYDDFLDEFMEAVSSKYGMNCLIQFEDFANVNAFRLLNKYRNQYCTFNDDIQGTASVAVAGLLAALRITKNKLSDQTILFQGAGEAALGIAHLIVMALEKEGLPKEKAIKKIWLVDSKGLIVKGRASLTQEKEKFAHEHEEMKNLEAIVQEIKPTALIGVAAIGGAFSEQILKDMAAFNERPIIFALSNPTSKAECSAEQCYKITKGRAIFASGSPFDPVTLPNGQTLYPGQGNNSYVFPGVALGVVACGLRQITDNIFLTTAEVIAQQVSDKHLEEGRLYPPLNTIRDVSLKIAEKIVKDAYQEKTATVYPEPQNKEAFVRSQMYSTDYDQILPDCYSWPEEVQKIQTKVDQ
UniProt Q8IWA4: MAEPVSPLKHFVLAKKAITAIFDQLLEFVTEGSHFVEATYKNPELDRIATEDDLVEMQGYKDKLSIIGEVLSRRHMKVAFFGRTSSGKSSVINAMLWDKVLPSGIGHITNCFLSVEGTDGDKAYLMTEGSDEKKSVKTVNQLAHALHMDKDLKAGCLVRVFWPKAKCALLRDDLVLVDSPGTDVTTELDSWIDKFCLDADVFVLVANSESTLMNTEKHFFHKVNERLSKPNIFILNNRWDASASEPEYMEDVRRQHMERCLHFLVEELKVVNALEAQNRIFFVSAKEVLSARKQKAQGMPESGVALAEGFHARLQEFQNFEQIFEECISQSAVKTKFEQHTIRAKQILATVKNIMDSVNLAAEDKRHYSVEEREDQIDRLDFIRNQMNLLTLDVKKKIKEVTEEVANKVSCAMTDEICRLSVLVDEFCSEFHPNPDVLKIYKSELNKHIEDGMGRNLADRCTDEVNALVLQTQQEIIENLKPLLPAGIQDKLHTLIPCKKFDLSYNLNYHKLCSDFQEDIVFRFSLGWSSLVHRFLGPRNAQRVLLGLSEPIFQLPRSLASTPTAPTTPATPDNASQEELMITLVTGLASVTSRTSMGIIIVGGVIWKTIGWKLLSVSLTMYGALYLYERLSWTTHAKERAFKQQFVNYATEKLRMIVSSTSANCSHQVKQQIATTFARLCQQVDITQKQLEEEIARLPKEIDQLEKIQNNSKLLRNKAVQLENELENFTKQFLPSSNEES
UniProt P33992: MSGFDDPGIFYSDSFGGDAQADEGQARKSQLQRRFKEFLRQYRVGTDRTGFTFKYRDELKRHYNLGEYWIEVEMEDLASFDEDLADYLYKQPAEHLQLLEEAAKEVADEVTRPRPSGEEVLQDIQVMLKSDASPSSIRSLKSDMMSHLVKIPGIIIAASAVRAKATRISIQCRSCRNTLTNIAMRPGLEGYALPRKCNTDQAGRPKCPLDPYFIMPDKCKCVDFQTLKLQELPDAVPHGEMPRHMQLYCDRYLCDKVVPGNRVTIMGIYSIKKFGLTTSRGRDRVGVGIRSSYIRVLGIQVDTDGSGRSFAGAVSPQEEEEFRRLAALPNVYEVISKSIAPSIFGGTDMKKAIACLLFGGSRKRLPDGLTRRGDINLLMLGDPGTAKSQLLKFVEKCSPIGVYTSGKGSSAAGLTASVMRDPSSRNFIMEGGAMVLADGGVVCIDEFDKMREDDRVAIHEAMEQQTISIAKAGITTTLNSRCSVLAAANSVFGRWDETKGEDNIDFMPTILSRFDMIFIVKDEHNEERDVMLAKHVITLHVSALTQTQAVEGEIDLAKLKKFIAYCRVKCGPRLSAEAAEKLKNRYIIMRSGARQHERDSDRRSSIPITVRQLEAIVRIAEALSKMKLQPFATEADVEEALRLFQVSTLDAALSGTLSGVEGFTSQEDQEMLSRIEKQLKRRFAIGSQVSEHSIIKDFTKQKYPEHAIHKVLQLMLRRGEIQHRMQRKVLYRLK
UniProt O95402: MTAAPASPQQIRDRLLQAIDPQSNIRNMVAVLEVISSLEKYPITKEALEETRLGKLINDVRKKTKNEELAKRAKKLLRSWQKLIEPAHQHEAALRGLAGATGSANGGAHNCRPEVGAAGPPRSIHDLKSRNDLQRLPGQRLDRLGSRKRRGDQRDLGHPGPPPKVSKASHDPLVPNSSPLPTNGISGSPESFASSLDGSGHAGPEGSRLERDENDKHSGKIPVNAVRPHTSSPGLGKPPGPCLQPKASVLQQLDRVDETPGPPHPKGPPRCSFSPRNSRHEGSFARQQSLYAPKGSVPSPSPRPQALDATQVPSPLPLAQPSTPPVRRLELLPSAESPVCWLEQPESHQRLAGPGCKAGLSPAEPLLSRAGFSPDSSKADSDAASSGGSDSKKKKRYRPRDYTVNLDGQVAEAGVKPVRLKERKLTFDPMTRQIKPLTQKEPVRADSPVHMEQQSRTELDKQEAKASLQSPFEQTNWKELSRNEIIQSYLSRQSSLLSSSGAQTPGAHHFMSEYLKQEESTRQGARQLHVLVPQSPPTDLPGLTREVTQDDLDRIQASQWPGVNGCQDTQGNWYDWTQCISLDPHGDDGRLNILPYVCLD
UniProt Q9NVC6: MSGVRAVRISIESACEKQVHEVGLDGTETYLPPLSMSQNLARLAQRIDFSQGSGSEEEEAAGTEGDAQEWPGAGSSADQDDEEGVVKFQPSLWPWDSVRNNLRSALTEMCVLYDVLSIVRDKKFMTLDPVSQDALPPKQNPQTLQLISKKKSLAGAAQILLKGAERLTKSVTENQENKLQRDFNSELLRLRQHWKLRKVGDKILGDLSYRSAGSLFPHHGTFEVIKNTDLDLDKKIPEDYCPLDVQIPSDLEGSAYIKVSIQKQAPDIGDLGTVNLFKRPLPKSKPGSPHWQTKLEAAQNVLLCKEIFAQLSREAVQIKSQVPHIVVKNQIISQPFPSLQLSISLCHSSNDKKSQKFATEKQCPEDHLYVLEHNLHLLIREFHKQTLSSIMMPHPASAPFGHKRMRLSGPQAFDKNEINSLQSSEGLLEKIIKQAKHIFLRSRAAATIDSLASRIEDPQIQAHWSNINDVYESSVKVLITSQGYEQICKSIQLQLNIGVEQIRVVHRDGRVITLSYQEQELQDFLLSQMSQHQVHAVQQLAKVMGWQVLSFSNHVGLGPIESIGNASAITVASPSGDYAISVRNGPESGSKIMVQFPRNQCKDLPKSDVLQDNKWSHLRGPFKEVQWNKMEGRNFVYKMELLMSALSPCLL
UniProt Q9H3U5: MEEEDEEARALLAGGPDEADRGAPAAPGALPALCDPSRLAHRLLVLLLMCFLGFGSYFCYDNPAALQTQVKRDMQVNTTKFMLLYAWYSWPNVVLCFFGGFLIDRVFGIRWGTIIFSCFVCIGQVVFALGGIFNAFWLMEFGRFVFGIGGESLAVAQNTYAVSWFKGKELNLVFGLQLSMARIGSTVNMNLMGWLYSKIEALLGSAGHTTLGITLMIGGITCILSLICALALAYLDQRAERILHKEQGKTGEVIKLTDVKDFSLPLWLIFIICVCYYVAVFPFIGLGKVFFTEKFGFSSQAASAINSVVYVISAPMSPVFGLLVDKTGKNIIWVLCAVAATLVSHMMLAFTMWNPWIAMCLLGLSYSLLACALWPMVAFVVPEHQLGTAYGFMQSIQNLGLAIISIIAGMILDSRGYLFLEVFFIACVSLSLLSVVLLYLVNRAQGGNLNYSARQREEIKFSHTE

Compound: C1=CC(=CC=C1C2=NC3=C(N2)C=C(C=C3)C(=O)N)OC4=CC=C(C=C4)Cl
Test: log2 fold change, soluble protein after heating vs DMSO (PISA); higher = thermal stabilisation; K562 lysate, 10 uM; active = over 0.2 and 3.5 SD of the protein, either way, in both replicates (recomputed)
Summary of the method: (§1)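 K562 pellets were dounce-homogenised in PBS pH 7.4 with 1 mM MgCl2, and the crude extract at 1 mg/mL protein was treated with 10 μM compound for 30 min. Aliquots were heated for 3 min across 48°C-58°C, pooled, and brought to 0.5% NP-40 at 4°C; soluble protein was the supernatant after 21,000xg for 90 min. Soluble protein was quantified by TMTpro 16plex LC-MS/MS with channel sums equalised, and reported as log2 fold change in thermal stability against DMSO controls, with values from duplicates.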

log2 fold change, inactive:
METTL16 (UniProt Q86W50) 0.037
MEX3D isoform 3 (UniProt Q86XN8) -0.048
MED4 (UniProt Q9NPJ6) 0.025
MEF2C isoform 5 (UniProt Q06413) 0.046
MED22 isoform 2 (UniProt Q15528) -0.031
MFSD10 (UniProt Q14728) -0.145
MDH1 isoform 3 (UniProt P40925) 0.02
MCM4 (UniProt P33991) -0.007
METTL2A (UniProt Q96IZ6) -0.026
MED8 isoform 2 (UniProt Q96G25) -0.001
MCFD2 (UniProt Q8NI22) 0.031
MESD (UniProt Q14696) 0.023
METTL7A (UniProt Q9H8H3) 0.183
MED20 (UniProt Q9H944) -0.008
MEF2D (UniProt Q14814) 0.008
MCU (UniProt Q8NE86) -0.09
MAZ isoform 2 (UniProt P56270) -0.072
MBOAT2 (UniProt Q6ZWT7) -0.111
MDN1 (UniProt Q9NU22) 0.015
MFN2 (UniProt O95140) -0.011
MED14 (UniProt O60244) 0.008
MFGE8 (UniProt Q08431) 0.036
ME1 (UniProt P48163) 0.016
MFN1 (UniProt Q8IWA4) -0.025
METAP1 (UniProt P53582) 0.011
MED13L (UniProt Q71F56) 0.03
MCM5 (UniProt P33992) -0.008
MED15 (UniProt Q96RN5) -0.004
MED7 (UniProt O43513) 0.038
MED12 isoform 2 (UniProt Q93074) 0
METAP2 (UniProt P50579) 0.015
MBNL1 (UniProt C9JP00) 0.024
MED13 (UniProt Q9UHV7) 0.082
MED26 (UniProt O95402) 0.239
MED1 (UniProt Q15648) 0.016
MED17 (UniProt Q9NVC6) 0.019
MED30 (UniProt Q96HR3) 0.03
MFSD1 isoform 6 (UniProt Q9H3U5) 0.022

Compound: C1=CC2=C(C=CC(=C2)/C=C\3/C(=O)NC(=NCC4=CC=CS4)S3)N=C1
Test: as above
Summary of the method: as §1

log2 fold change, inactive:
METTL16 (UniProt Q86W50) 0.001
MEX3D isoform 3 (UniProt Q86XN8) 0.031
MED4 (UniProt Q9NPJ6) 0.027
MEF2C isoform 5 (UniProt Q06413) -0.044
MED22 isoform 2 (UniProt Q15528) -0.004
MFSD10 (UniProt Q14728) -0.01
MDH1 isoform 3 (UniProt P40925) -0.042
MCM4 (UniProt P33991) 0.024
METTL2A (UniProt Q96IZ6) 0.037
MED8 isoform 2 (UniProt Q96G25) 0.021
MCFD2 (UniProt Q8NI22) 0.077
MESD (UniProt Q14696) -0.005
METTL7A (UniProt Q9H8H3) 0.008
MED20 (UniProt Q9H944) 0.003
MEF2D (UniProt Q14814) -0.011
MCU (UniProt Q8NE86) 0.02
MAZ isoform 2 (UniProt P56270) 0
MBOAT2 (UniProt Q6ZWT7) -0.022
MDN1 (UniProt Q9NU22) 0.021
MFN2 (UniProt O95140) -0.003
MED14 (UniProt O60244) 0.027
MFGE8 (UniProt Q08431) -0.055
ME1 (UniProt P48163) 0.036
MFN1 (UniProt Q8IWA4) -0.05
METAP1 (UniProt P53582) 0.004
MED13L (UniProt Q71F56) 0.024
MCM5 (UniProt P33992) 0.001
MED15 (UniProt Q96RN5) -0.006
MED7 (UniProt O43513) -0.038
MED12 isoform 2 (UniProt Q93074) 0.009
METAP2 (UniProt P50579) 0.018
MBNL1 (UniProt C9JP00) 0.021
MED13 (UniProt Q9UHV7) -0.02
MED26 (UniProt O95402) 0.009
MED1 (UniProt Q15648) -0.021
MED17 (UniProt Q9NVC6) 0.065
MED30 (UniProt Q96HR3) 0.007
MFSD1 isoform 6 (UniProt Q9H3U5) -0.071
